From patent US20030186424A1, “Reagents and methods for identifying and modulating expression of genes regulated by CDK inhibitors” (priority 2001, published 2003)
Construct, isoform or probe ends are uncertain for at least one entry.

Test system: TBP + TFIIB complex
Experiment: EMSA
Settings: stable complex only with both TBP and TFIIB; 30 C, 4 mM MgCl2, 55 mM KCl, poly(dG.dC); exact probe span not stated; purified recombinant protein; protein details: gift from Stefan Roberts, University of Manchester; label: 32P

“TTCCTGAAGGGGGGCTATAAAAGGGGGTGGGGGCGCGTTCGTCCTCACTCTCTTCCGCATGAA (double strand) [AdML TATA box core promoter probe]”: binds.
